Non-standard residues stand in square brackets, D forms with d. Dmt = Cc1cc(O)cc(C)c1C[C@H](N)C(=O)O
Test: general procedure: solution-phase peptide synthesis; TBTU
[1] = late stage modification step, HPLC, trifluoroacetate salt

Question: Which results are given for H-[dR][Dmt]KF-NH2?
Answer: crude purity (method not given) [1]: 97%; final purity (method not given) [1]: 99%; crude HPLC purity (late stage modification step, TFA salt): 96.6%

Question: Which “final HPLC purity” value (coupling step, trifluoroacetate salt) does the source give for Boc-D-Arg-Dmt(Boc)-Lys(Boc)-Phe-NH2 here?
Answer: 98.2%
